Holding throughout (test): minimum inhibitory concentration
Compound in test [1]: CC(=O)NC[C@H]1CN(c2ccc(N3CCOCC3)c(F)c2)C(=O)O1 [linezolid]
Compound in test [2]: CCC[C@@H]1C[C@@H](C(=O)N[C@@H]([C@H]2O[C@H](SC)[C@H](O)[C@@H](O)[C@H]2O)[C@H](C)Cl)N(C)C1 [clindamycin]
Compound in test [3]: CCc1c(Cl)c(O)c(Cl)c(O)c1C(=O)O[C@H]1[C@H](O)[C@H](OC)[C@H](OC/C2=C\C=C\C[C@H](O)/C(C)=C/[C@H](CC)[C@@H](O[C@@H]3OC(C)(C)[C@@H](OC(=O)C(C)C)[C@H](O)[C@@H]3O)/C(C)=C/C(C)=C/C[C@@H]([C@@H](C)O)OC2=O)O[C@@H]1C [fidaxomicin]
Compound in test [4]: CN(C)c1cc(NC(=O)CNC(C)(C)C)c(O)c2c1C[C@H]1C[C@H]3[C@H](N(C)C)C(O)=C(C(N)=O)C(=O)[C@@]3(O)C(O)=C1C2=O [tigecycline]
Compound in test [5]: CN[C@H](CC(C)C)C(=O)N[C@H]1C(=O)N[C@@H](CC(N)=O)C(=O)N[C@H]2C(=O)N[C@H]3C(=O)N[C@H](C(=O)N[C@H](C(=O)O)c4cc(O)cc(O)c4-c4cc3ccc4O)[C@H](O)c3ccc(c(Cl)c3)Oc3cc2cc(c3O[C@@H]2O[C@H](CO)[C@@H](O)[C@H](O)[C@H]2O[C@H]2C[C@](C)(N)[C@H](O)[C@H](C)O2)Oc2ccc(cc2Cl)[C@H]1O [vancomycin]
Compound in test [6]: CO[C@H]1/C=C/O[C@@]2(C)Oc3c(C)c(O)c4c(O)c(c(/C=N/N5CCN(C)CC5)c(O)c4c3C2=O)NC(=O)/C(C)=C\C=C\[C@H](C)[C@H](O)[C@@H](C)[C@@H](O)[C@@H](C)[C@H](OC(C)=O)[C@@H]1C [rifampicin]
Compound in test [7]: C[C@@H](O)[C@H]1C(=O)N2C(C(=O)O)=C(SCCNC=N)C[C@H]12 [imipenem]
Compound in test [8]: C[C@@H](O)[C@H]1C(=O)N2C(C(=O)O)=C(S[C@@H]3CN[C@H](C(=O)N(C)C)C3)[C@H](C)[C@H]12 [meropenem]
Compound in test [9]: Cc1ncc([N+](=O)[O-])n1CCO [metronidazole]

In the supplement of paper PMC11264405 one finds minimum inhibitory concentration data, which are given here for 13 test systems.

With “Clostridioides difficile PCR ribotype 181 isolate #236 (European region: East, country: Romania, isolate source: Human, ribotype: 181)”, the minimum inhibitory concentration in test [1] is 2 µg/mL; in test [2] it was above 128 µg/mL; in [3], 0.008 µg/mL; in test [4], below 0.03 µg/mL; in [5], 0.5 µg/mL; in [6] it was above 32 µg/mL. In addition, the minimum inhibitory concentration is 4 µg/mL in [7], 4 µg/mL in [8] and 2 µg/mL in test [9].

Consider “Clostridioides difficile PCR ribotype 181 isolate #237 (European region: East, country: Romania, isolate source: Human, ribotype: 181)”, for which the minimum inhibitory concentration in [1] was 2 µg/mL; in test [2] it was 8 µg/mL; in test [3], 0.03 µg/mL; in test [4], below 0.03 µg/mL; in [5] it was 0.5 µg/mL; in test [6], above 32 µg/mL. The values for the minimum inhibitory concentration in test [7], in test [8] and in test [9] were 4 µg/mL, 4 µg/mL and 1 µg/mL, respectively.

Regarding “Clostridioides difficile PCR ribotype 181 isolate #238 (European region: East, country: Romania, isolate source: Human, ribotype: 181)”, the minimum inhibitory concentration was 2 µg/mL in [1]; 8 µg/mL in test [2]; 0.03 µg/mL in test [3]; below 0.03 µg/mL in test [4]; 0.5 µg/mL in test [5]; above 32 µg/mL in test [6]. The minimum inhibitory concentration came out at 4 µg/mL in test [7], 4 µg/mL in test [8] and 1 µg/mL in test [9].

As for “Clostridioides difficile PCR ribotype 181 isolate #239 (European region: East, country: Romania, isolate source: Human, ribotype: 181)”, the minimum inhibitory concentration in test [1] is 2 µg/mL; in test [2], 8 µg/mL; in test [3], 0.03 µg/mL; in test [4] it was below 0.03 µg/mL; in test [5], 0.5 µg/mL; in [6], above 32 µg/mL. Also, the figures for the minimum inhibitory concentration in test [7], in test [8] and in test [9] were 8 µg/mL, 4 µg/mL and 1 µg/mL, respectively.

Take “Clostridioides difficile PCR ribotype 181 isolate #240 (European region: East, country: Romania, isolate source: Human, ribotype: 181)”: the minimum inhibitory concentration in test [1] was 2 µg/mL; in [2], 16 µg/mL; in test [3], 0.03 µg/mL; in [4], below 0.03 µg/mL; in test [5], 0.5 µg/mL; in test [6], above 32 µg/mL. The minimum inhibitory concentration in [7] stood at 8 µg/mL; in test [8], 4 µg/mL; in [9], 1 µg/mL.

With “Clostridioides difficile PCR ribotype 181 isolate #241 (European region: East, country: Romania, isolate source: Human, ribotype: 181)”, the minimum inhibitory concentration was 2 µg/mL in [1]; 8 µg/mL in test [2]; 0.06 µg/mL in [3]; below 0.03 µg/mL in [4]; 0.5 µg/mL in test [5]; above 32 µg/mL in [6]. Besides, the minimum inhibitory concentration in test [7] came to 4 µg/mL; in [8] it was 4 µg/mL; in test [9], 1 µg/mL.

Turning to “Clostridioides difficile PCR ribotype 181 isolate #242 (European region: East, country: Romania, isolate source: Human, ribotype: 181)”, the minimum inhibitory concentration in test [1] is 2 µg/mL; in test [2], 16 µg/mL; in test [3], 0.03 µg/mL; in [4], below 0.03 µg/mL; in [5], 0.5 µg/mL; in [6], above 32 µg/mL. The minimum inhibitory concentration stood at 4 µg/mL in test [7], 4 µg/mL in test [8] and 1 µg/mL in [9].

Turning to “Clostridioides difficile PCR ribotype 181 isolate #243 (European region: East, country: Romania, isolate source: Human, ribotype: 181)”, the minimum inhibitory concentration in test [1] is 2 µg/mL; in test [2] it was 16 µg/mL; in [3], 0.03 µg/mL; in [4] it was below 0.03 µg/mL; in test [5], 0.5 µg/mL; in test [6], above 32 µg/mL. In addition, the minimum inhibitory concentration is 8 µg/mL in test [7], 4 µg/mL in [8] and 1 µg/mL in [9].

In the case of “Clostridioides difficile PCR ribotype 181 isolate #244 (European region: East, country: Romania, isolate source: Human, ribotype: 181)”, the minimum inhibitory concentration in test [1] is 2 µg/mL; in test [2] it was 16 µg/mL; in test [3], 0.03 µg/mL; in [4] it was below 0.03 µg/mL; in test [5] it was 0.5 µg/mL; in [6], above 32 µg/mL. The minimum inhibitory concentration in [7] was found to be 4 µg/mL; in [8] it was 4 µg/mL; in test [9], 1 µg/mL.

With “Clostridioides difficile PCR ribotype 181 isolate #245 (European region: East, country: Romania, isolate source: Human, ribotype: 181)”, the minimum inhibitory concentration is 2 µg/mL in [1]; 16 µg/mL in test [2]; 0.03 µg/mL in test [3]; below 0.03 µg/mL in [4]; 0.5 µg/mL in test [5]; above 32 µg/mL in [6]. The minimum inhibitory concentration in test [7] was determined as 4 µg/mL; in test [8], 4 µg/mL; in test [9] it was 1 µg/mL.

On to “Clostridioides difficile PCR ribotype 181 isolate #246 (European region: East, country: Romania, isolate source: Human, ribotype: 181)”, for which the minimum inhibitory concentration in [1] was 2 µg/mL; in test [2] it was 16 µg/mL; in test [3], 0.03 µg/mL; in test [4], 0.06 µg/mL; in [5] it was 0.5 µg/mL; in [6] it was above 32 µg/mL. Further, the values for the minimum inhibitory concentration in test [7], in [8] and in test [9] were 8 µg/mL, 4 µg/mL and 1 µg/mL, respectively.

Consider “Clostridioides difficile PCR ribotype 181 isolate #247 (European region: East, country: Romania, isolate source: Human, ribotype: 181)”, for which the minimum inhibitory concentration was 2 µg/mL in test [1]; 16 µg/mL in test [2]; 0.03 µg/mL in test [3]; below 0.03 µg/mL in test [4]; 0.5 µg/mL in test [5]; above 32 µg/mL in test [6]. In addition, the minimum inhibitory concentration was 4 µg/mL in [7], 4 µg/mL in test [8] and 1 µg/mL in test [9].

Take “Clostridioides difficile PCR ribotype 181 isolate #248 (European region: East, country: Romania, isolate source: Human, ribotype: 181)”: the minimum inhibitory concentration was 2 µg/mL in test [1]; 16 µg/mL in [2]; 0.03 µg/mL in test [3]; below 0.03 µg/mL in test [4]; 0.5 µg/mL in [5]; above 32 µg/mL in test [6]. The minimum inhibitory concentration was 4 µg/mL in test [7], 4 µg/mL in [8] and 1 µg/mL in test [9].
